Experimental data: patent publication US20250163140A1
No constants are given. Whether binding was seen depends on the method and setting. Some binding calls cover weakened binding; strength is not graded here.

Chains of the proteins cited; added tags and fusions are not shown. Residues count along the entry.
UniProt Q9GZV9, residues 25-251: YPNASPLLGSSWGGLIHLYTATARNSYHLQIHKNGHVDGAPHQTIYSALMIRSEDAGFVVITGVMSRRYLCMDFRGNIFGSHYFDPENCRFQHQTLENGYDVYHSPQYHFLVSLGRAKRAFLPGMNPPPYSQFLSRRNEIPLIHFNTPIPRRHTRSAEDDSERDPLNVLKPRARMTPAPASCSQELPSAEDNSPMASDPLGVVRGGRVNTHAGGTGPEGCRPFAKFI

Target: Recombinant Human FGF-23 (R&D Systems, Cat No. 2604-FG-025/CF) (human) (UniProt Q9GZV9)
Experiment: SPR, antibody captured by anti-human IgG, FGF-23 analyte

Binder | binding
antibody D105A (antibody, human IgG1, V domains shown) VH: QVQLVQSGAEVKKPGASVKVSCKASGYTFTNHYMHWVRQAPGQGLEWMGIINPISGSTSNAQKFQGRVTMTRDTSTSTVYMELSSLRSEDTAVYYCARDIVDAFAFWGQGTMVTVSS VL: AIQLTQSPSSLSASVGDRVTITCRASQGISSALVWYQQKPGKAPKLLIYDASSLESGVPSRFSGSGSGTDFTLTISSLQPEDFATYYCQQFNDYFTFGPGTKVDIK | binds
antibody D105E (antibody, human IgG1, V domains shown) VH: QVQLVQSGAEVKKPGASVKVSCKASGYTFTNHYMHWVRQAPGQGLEWMGIINPISGSTSNAQKFQGRVTMTRDTSTSTVYMELSSLRSEDTAVYYCARDIVDAFEFWGQGTMVTVSS VL: AIQLTQSPSSLSASVGDRVTITCRASQGISSALVWYQQKPGKAPKLLIYDASSLESGVPSRFSGSGSGTDFTLTISSLQPEDFATYYCQQFNDYFTFGPGTKVDIK | binds
antibody D105F (antibody, human IgG1, V domains shown) VH: QVQLVQSGAEVKKPGASVKVSCKASGYTFTNHYMHWVRQAPGQGLEWMGIINPISGSTSNAQKFQGRVTMTRDTSTSTVYMELSSLRSEDTAVYYCARDIVDAFFFWGQGTMVTVSS VL: AIQLTQSPSSLSASVGDRVTITCRASQGISSALVWYQQKPGKAPKLLIYDASSLESGVPSRFSGSGSGTDFTLTISSLQPEDFATYYCQQFNDYFTFGPGTKVDIK | binds
antibody D105G (antibody, human IgG1, V domains shown) VH: QVQLVQSGAEVKKPGASVKVSCKASGYTFTNHYMHWVRQAPGQGLEWMGIINPISGSTSNAQKFQGRVTMTRDTSTSTVYMELSSLRSEDTAVYYCARDIVDAFGFWGQGTMVTVSS VL: AIQLTQSPSSLSASVGDRVTITCRASQGISSALVWYQQKPGKAPKLLIYDASSLESGVPSRFSGSGSGTDFTLTISSLQPEDFATYYCQQFNDYFTFGPGTKVDIK | binds
antibody D105H (antibody, human IgG1, V domains shown) VH: QVQLVQSGAEVKKPGASVKVSCKASGYTFTNHYMHWVRQAPGQGLEWMGIINPISGSTSNAQKFQGRVTMTRDTSTSTVYMELSSLRSEDTAVYYCARDIVDAFHFWGQGTMVTVSS VL: AIQLTQSPSSLSASVGDRVTITCRASQGISSALVWYQQKPGKAPKLLIYDASSLESGVPSRFSGSGSGTDFTLTISSLQPEDFATYYCQQFNDYFTFGPGTKVDIK | binds
antibody D105I (antibody, human IgG1, V domains shown) VH: QVQLVQSGAEVKKPGASVKVSCKASGYTFTNHYMHWVRQAPGQGLEWMGIINPISGSTSNAQKFQGRVTMTRDTSTSTVYMELSSLRSEDTAVYYCARDIVDAFIFWGQGTMVTVSS VL: AIQLTQSPSSLSASVGDRVTITCRASQGISSALVWYQQKPGKAPKLLIYDASSLESGVPSRFSGSGSGTDFTLTISSLQPEDFATYYCQQFNDYFTFGPGTKVDIK | binds
antibody D105K (antibody, human IgG1, V domains shown) VH: QVQLVQSGAEVKKPGASVKVSCKASGYTFTNHYMHWVRQAPGQGLEWMGIINPISGSTSNAQKFQGRVTMTRDTSTSTVYMELSSLRSEDTAVYYCARDIVDAFKFWGQGTMVTVSS VL: AIQLTQSPSSLSASVGDRVTITCRASQGISSALVWYQQKPGKAPKLLIYDASSLESGVPSRFSGSGSGTDFTLTISSLQPEDFATYYCQQFNDYFTFGPGTKVDIK | binds
antibody D105L (antibody, human IgG1, V domains shown) VH: QVQLVQSGAEVKKPGASVKVSCKASGYTFTNHYMHWVRQAPGQGLEWMGIINPISGSTSNAQKFQGRVTMTRDTSTSTVYMELSSLRSEDTAVYYCARDIVDAFLFWGQGTMVTVSS VL: AIQLTQSPSSLSASVGDRVTITCRASQGISSALVWYQQKPGKAPKLLIYDASSLESGVPSRFSGSGSGTDFTLTISSLQPEDFATYYCQQFNDYFTFGPGTKVDIK | binds
antibody D105M (antibody, human IgG1, V domains shown) VH: QVQLVQSGAEVKKPGASVKVSCKASGYTFTNHYMHWVRQAPGQGLEWMGIINPISGSTSNAQKFQGRVTMTRDTSTSTVYMELSSLRSEDTAVYYCARDIVDAFMFWGQGTMVTVSS VL: AIQLTQSPSSLSASVGDRVTITCRASQGISSALVWYQQKPGKAPKLLIYDASSLESGVPSRFSGSGSGTDFTLTISSLQPEDFATYYCQQFNDYFTFGPGTKVDIK | binds
antibody D105P (antibody, human IgG1, V domains shown) VH: QVQLVQSGAEVKKPGASVKVSCKASGYTFTNHYMHWVRQAPGQGLEWMGIINPISGSTSNAQKFQGRVTMTRDTSTSTVYMELSSLRSEDTAVYYCARDIVDAFPFWGQGTMVTVSS VL: AIQLTQSPSSLSASVGDRVTITCRASQGISSALVWYQQKPGKAPKLLIYDASSLESGVPSRFSGSGSGTDFTLTISSLQPEDFATYYCQQFNDYFTFGPGTKVDIK | binds
antibody D105Q (antibody, human IgG1, V domains shown) VH: QVQLVQSGAEVKKPGASVKVSCKASGYTFTNHYMHWVRQAPGQGLEWMGIINPISGSTSNAQKFQGRVTMTRDTSTSTVYMELSSLRSEDTAVYYCARDIVDAFQFWGQGTMVTVSS VL: AIQLTQSPSSLSASVGDRVTITCRASQGISSALVWYQQKPGKAPKLLIYDASSLESGVPSRFSGSGSGTDFTLTISSLQPEDFATYYCQQFNDYFTFGPGTKVDIK | binds
antibody D105R (antibody, human IgG1, V domains shown) VH: QVQLVQSGAEVKKPGASVKVSCKASGYTFTNHYMHWVRQAPGQGLEWMGIINPISGSTSNAQKFQGRVTMTRDTSTSTVYMELSSLRSEDTAVYYCARDIVDAFRFWGQGTMVTVSS VL: AIQLTQSPSSLSASVGDRVTITCRASQGISSALVWYQQKPGKAPKLLIYDASSLESGVPSRFSGSGSGTDFTLTISSLQPEDFATYYCQQFNDYFTFGPGTKVDIK | binds
antibody D105V (antibody, human IgG1, V domains shown) VH: QVQLVQSGAEVKKPGASVKVSCKASGYTFTNHYMHWVRQAPGQGLEWMGIINPISGSTSNAQKFQGRVTMTRDTSTSTVYMELSSLRSEDTAVYYCARDIVDAFVFWGQGTMVTVSS VL: AIQLTQSPSSLSASVGDRVTITCRASQGISSALVWYQQKPGKAPKLLIYDASSLESGVPSRFSGSGSGTDFTLTISSLQPEDFATYYCQQFNDYFTFGPGTKVDIK | binds
antibody D105W (antibody, human IgG1, V domains shown) VH: QVQLVQSGAEVKKPGASVKVSCKASGYTFTNHYMHWVRQAPGQGLEWMGIINPISGSTSNAQKFQGRVTMTRDTSTSTVYMELSSLRSEDTAVYYCARDIVDAFWFWGQGTMVTVSS VL: AIQLTQSPSSLSASVGDRVTITCRASQGISSALVWYQQKPGKAPKLLIYDASSLESGVPSRFSGSGSGTDFTLTISSLQPEDFATYYCQQFNDYFTFGPGTKVDIK | binds
antibody D105Y (antibody, human IgG1, V domains shown) VH: QVQLVQSGAEVKKPGASVKVSCKASGYTFTNHYMHWVRQAPGQGLEWMGIINPISGSTSNAQKFQGRVTMTRDTSTSTVYMELSSLRSEDTAVYYCARDIVDAFYFWGQGTMVTVSS VL: AIQLTQSPSSLSASVGDRVTITCRASQGISSALVWYQQKPGKAPKLLIYDASSLESGVPSRFSGSGSGTDFTLTISSLQPEDFATYYCQQFNDYFTFGPGTKVDIK | binds
antibody D105T (antibody, human IgG1, V domains shown) VH: QVQLVQSGAEVKKPGASVKVSCKASGYTFTNHYMHWVRQAPGQGLEWMGIINPISGSTSNAQKFQGRVTMTRDTSTSTVYMELSSLRSEDTAVYYCARDIVDAFTFWGQGTMVTVSS VL: AIQLTQSPSSLSASVGDRVTITCRASQGISSALVWYQQKPGKAPKLLIYDASSLESGVPSRFSGSGSGTDFTLTISSLQPEDFATYYCQQFNDYFTFGPGTKVDIK | binds
antibody D105N (antibody, human IgG1, V domains shown) VH: QVQLVQSGAEVKKPGASVKVSCKASGYTFTNHYMHWVRQAPGQGLEWMGIINPISGSTSNAQKFQGRVTMTRDTSTSTVYMELSSLRSEDTAVYYCARDIVDAFNFWGQGTMVTVSS VL: AIQLTQSPSSLSASVGDRVTITCRASQGISSALVWYQQKPGKAPKLLIYDASSLESGVPSRFSGSGSGTDFTLTISSLQPEDFATYYCQQFNDYFTFGPGTKVDIK | binds
antibody D105S (antibody, human IgG1, V domains shown) VH: QVQLVQSGAEVKKPGASVKVSCKASGYTFTNHYMHWVRQAPGQGLEWMGIINPISGSTSNAQKFQGRVTMTRDTSTSTVYMELSSLRSEDTAVYYCARDIVDAFSFWGQGTMVTVSS VL: AIQLTQSPSSLSASVGDRVTITCRASQGISSALVWYQQKPGKAPKLLIYDASSLESGVPSRFSGSGSGTDFTLTISSLQPEDFATYYCQQFNDYFTFGPGTKVDIK | binds
antibody I100A (antibody, human IgG1, V domains shown) VH: QVQLVQSGAEVKKPGASVKVSCKASGYTFTNHYMHWVRQAPGQGLEWMGIINPISGSTSNAQKFQGRVTMTRDTSTSTVYMELSSLRSEDTAVYYCARDAVDAFDFWGQGTMVTVSS VL: AIQLTQSPSSLSASVGDRVTITCRASQGISSALVWYQQKPGKAPKLLIYDASSLESGVPSRFSGSGSGTDFTLTISSLQPEDFATYYCQQFNDYFTFGPGTKVDIK | binds
antibody I100Y (antibody, human IgG1, V domains shown) VH: QVQLVQSGAEVKKPGASVKVSCKASGYTFTNHYMHWVRQAPGQGLEWMGIINPISGSTSNAQKFQGRVTMTRDTSTSTVYMELSSLRSEDTAVYYCARDYVDAFDFWGQGTMVTVSS VL: AIQLTQSPSSLSASVGDRVTITCRASQGISSALVWYQQKPGKAPKLLIYDASSLESGVPSRFSGSGSGTDFTLTISSLQPEDFATYYCQQFNDYFTFGPGTKVDIK | binds
antibody I100W (antibody, human IgG1, V domains shown) VH: QVQLVQSGAEVKKPGASVKVSCKASGYTFTNHYMHWVRQAPGQGLEWMGIINPISGSTSNAQKFQGRVTMTRDTSTSTVYMELSSLRSEDTAVYYCARDWVDAFDFWGQGTMVTVSS VL: AIQLTQSPSSLSASVGDRVTITCRASQGISSALVWYQQKPGKAPKLLIYDASSLESGVPSRFSGSGSGTDFTLTISSLQPEDFATYYCQQFNDYFTFGPGTKVDIK | binds
antibody I100S (antibody, human IgG1, V domains shown) VH: QVQLVQSGAEVKKPGASVKVSCKASGYTFTNHYMHWVRQAPGQGLEWMGIINPISGSTSNAQKFQGRVTMTRDTSTSTVYMELSSLRSEDTAVYYCARDSVDAFDFWGQGTMVTVSS VL: AIQLTQSPSSLSASVGDRVTITCRASQGISSALVWYQQKPGKAPKLLIYDASSLESGVPSRFSGSGSGTDFTLTISSLQPEDFATYYCQQFNDYFTFGPGTKVDIK | binds
